{"source": "paper PMC10470053", "about": "“Diverse p120RasGAP interactions with doubly phosphorylated partners EphB4, p190RhoGAP, and Dok1” (The Journal of Biological Chemistry, 2023)", "binders": {"B1": {"name": "doubly phosphorylated p190RhoGAP-A peptide (peptide)", "peptide": "SDYAEPMDAVVKPRNEEENIYSVPH", "modifications": "phosphotyrosine at 1087 and 1105; N-terminal acetylation; C-terminal amidation"}, "B2": {"name": "doubly phosphorylated EphB4 peptide (residues 586-602) (peptide)", "peptide": "GTKVYIDPFTYEDPNEA", "modifications": "phosphotyrosine at 590 and 596; N-terminal acetylation; C-terminal amidation"}, "B3": {"name": "doubly phosphorylated p190RhoGAP-A peptide (pY1087 and pY1105) (peptide)", "peptide": "SDYAEPMDAVVKPRNEEENIYSVPH", "modifications": "phosphotyrosine at 1087 and 1105; N-terminal acetylation; C-terminal amidation"}, "B4": {"name": "doubly phosphorylated EphB4 peptide (residues 586-602, pY590 and pY596) (peptide)", "peptide": "GTKVYIDPFTYEDPNEA", "modifications": "phosphotyrosine at 590 and 596; N-terminal acetylation; C-terminal amidation"}}, "key": {"[1]": {"target": "T1, RasGAP^232 (p120RasGAP SH2-SH3-SH2 region, residues 174-444) (human)", "T1 sequence": "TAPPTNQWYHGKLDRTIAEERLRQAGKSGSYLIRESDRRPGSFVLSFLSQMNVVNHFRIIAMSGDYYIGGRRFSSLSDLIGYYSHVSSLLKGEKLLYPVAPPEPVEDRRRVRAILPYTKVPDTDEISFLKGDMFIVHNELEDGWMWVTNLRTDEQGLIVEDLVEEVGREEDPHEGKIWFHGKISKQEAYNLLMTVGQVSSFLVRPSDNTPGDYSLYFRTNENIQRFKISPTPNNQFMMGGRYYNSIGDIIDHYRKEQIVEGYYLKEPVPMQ", "assay": "SEC-MALS; in-line SEC-MALS-SAXS, Superdex 200 Increase 10/300 GL; 0.5 mM peptide added to 0.1 mM RasGAP^232; 20 mM Tris pH 8, 350 mM NaCl, 1 mM DTT; 22 °C; both purified"}, "[2]": {"target": "T2, RasGAP^232 (p120RasGAP N-SH2, SH3 and C-SH2 domains, residues 174-444) (human) (UniProt P20936)", "T2 sequence": "T1 sequence", "assay": "native gel or EMSA; 0.5 mM peptide added to 0.1 mM RasGAP^232, run over Superdex 75 into 20 mM Tris pH 8, 350 mM NaCl, 1 mM DTT; presence of peptide after elution confirmed by native gel shift; samples then used for SEC-MALS-SAXS; both purified"}, "[3]": {"target": "T3, RasGAP^2(mut)32(mut) (RasGAP^232 with R207A and R398E/K400E) (human) (UniProt P20936)", "T3 sequence": "T1 sequence with R34A, R225E, K227E", "assay": "ITC; protein in the 190 ul sample cell, titrated 20 times with 2.5 ul peptide from the syringe; 20 mM Tris pH 8, 250 mM NaCl; Nano ITC (TA Instruments); independent binding model; both purified"}}, "note": "Changes are numbered by the printed parent chain. No constants are given. Whether binding was seen depends on the method and setting. Some entries that bind do so weakly or less than the wild type."}
{"binder": "B1", "values": [{"measurement": "binding", "setting": "[1]", "result": "binds"}]}
{"binder": "B2", "values": [{"measurement": "binding", "setting": "[1]", "result": "binds"}]}
{"binder": "B3", "values": [{"measurement": "binding", "setting": "[2]", "result": "binds"}]}
{"binder": "B4", "values": [{"measurement": "binding", "setting": "[3]", "result": "no binding"}]}
